Common to all, as to assay: co-IP
In assay [1] the target is T1, Fpn-GFP in doxycycline-inducible HEK293:TRex-Fpn-GFP (TRex) cells (UniProt Q9NP59).
T1 sequence: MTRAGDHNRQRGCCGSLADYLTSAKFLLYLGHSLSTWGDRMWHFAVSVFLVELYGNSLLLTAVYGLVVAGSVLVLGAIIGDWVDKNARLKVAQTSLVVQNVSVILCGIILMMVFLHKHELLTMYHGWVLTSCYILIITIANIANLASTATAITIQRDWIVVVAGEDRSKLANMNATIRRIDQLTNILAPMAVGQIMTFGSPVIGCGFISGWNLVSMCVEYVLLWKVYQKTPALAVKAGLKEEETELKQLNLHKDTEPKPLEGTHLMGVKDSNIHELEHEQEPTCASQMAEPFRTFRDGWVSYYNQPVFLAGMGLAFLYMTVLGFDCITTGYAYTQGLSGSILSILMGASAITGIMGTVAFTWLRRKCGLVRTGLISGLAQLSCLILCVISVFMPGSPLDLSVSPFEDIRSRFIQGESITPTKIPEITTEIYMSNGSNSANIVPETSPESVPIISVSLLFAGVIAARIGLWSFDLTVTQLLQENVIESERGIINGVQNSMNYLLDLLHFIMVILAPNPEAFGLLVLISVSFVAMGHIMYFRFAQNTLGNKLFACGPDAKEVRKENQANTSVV

The target of assay [2] is T2, ferroportin (Fpn), endogenous in mouse duodenum (mouse (endogenous in duodenum)) (UniProt Q9JHI9).
T2 sequence: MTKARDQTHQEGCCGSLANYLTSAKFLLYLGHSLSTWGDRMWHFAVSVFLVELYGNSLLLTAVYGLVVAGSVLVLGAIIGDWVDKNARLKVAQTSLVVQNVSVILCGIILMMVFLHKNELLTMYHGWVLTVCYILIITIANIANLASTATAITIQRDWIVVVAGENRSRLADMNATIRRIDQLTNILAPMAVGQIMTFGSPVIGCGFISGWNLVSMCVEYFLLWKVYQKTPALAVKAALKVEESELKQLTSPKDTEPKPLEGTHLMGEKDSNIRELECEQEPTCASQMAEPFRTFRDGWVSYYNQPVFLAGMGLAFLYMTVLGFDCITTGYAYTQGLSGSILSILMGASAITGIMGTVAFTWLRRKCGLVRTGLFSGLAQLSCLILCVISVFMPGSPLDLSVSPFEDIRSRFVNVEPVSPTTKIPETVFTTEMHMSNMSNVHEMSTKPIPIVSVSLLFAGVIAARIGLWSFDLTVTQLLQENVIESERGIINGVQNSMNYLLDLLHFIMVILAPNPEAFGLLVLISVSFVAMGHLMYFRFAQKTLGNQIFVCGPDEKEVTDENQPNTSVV

In assay [3] the target is T1, Fpn-GFP in doxycycline-inducible HEK293:TRex-Fpn-GFP (TRex) cells. The source holds these as a separate data set.

Read-outs that look alike come from different tables or passages of the source. Results are given in words; binding and its absence hold for the method and conditions named. In cells and extracts the contact can be indirect. Some binding calls cover weakened binding; strength is not graded here. For part of these data: Sequences can lack the tags named with a protein.

In the case of “HA-tagged full-length PKCα (from UniProt P17252 1-672) (enzyme)”, in assay [1], the binding entry was “binds”.

For the molecule “protein kinase C alpha (PKCα), endogenous in mouse duodenum (from UniProt P20444 1-672) (enzyme)”, in assay [2], the binding result is “binds”.

DTHFPICIFCCGCCHRSKCGMCCKT (peptide, UniProt P81172 60-84, biotin (position not given)) [Biotinyl-Hepcidin-25 (biotinylated human hepcidin)]: the binding entry in assay [3] is reported as “binds”.
